Over roughly 33,000 sequences, “E-score (-0.5 to 0.5)” has its median near -0.015; the highest 2% begin near 0.3. This is one part of the list.
molecular target: T1, Abf1 (UniProt P14164); assay: PBM E-score (8-mer binding enrichment) (E-score (-0.5 to 0.5)); higher = stronger / more preferred TF binding; conditions: protein concentration: 200 nM; construct: GST-full length
T1 sequence: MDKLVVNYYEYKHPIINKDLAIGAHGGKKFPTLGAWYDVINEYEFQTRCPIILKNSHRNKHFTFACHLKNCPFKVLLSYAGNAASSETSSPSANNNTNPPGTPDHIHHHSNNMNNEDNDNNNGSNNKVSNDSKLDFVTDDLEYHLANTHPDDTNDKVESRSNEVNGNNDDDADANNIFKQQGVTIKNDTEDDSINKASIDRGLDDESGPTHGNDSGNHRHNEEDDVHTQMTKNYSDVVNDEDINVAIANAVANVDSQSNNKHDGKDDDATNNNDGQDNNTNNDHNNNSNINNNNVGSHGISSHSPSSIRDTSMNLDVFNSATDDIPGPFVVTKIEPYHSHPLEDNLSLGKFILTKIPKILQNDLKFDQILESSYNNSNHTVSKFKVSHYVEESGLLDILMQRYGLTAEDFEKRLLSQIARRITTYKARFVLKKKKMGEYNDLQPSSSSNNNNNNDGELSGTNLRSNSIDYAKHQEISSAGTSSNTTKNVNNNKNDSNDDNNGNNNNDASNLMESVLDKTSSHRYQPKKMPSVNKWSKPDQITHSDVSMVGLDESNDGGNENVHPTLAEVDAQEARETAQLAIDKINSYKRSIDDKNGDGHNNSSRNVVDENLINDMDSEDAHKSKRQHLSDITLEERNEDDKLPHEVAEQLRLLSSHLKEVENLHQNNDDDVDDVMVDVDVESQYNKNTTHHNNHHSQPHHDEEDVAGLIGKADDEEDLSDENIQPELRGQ
In short: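 Full-length yeast transcription factors or their DNA-binding domains, GST-tagged and expressed with PURExpress, were applied at about 100-200 nM to universal all-10-mer Agilent arrays. These arrays had been made double-stranded by primer extension on fresh or once-stripped slides. Detection used fluorescent anti-GST, normalisation used masliner, and E-scores for ungapped eight-base words pooled with reverse complements came from the Universal PBM Analysis Suite.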

Going from GCGCTAAA to GTTCGTTA, the “PBM E-score” value rises from -0.0793 to 0.185.

Going from AAGTCGGT to GGCACTAC, the “PBM E-score” value rises from -0.113 to -0.0775.

First: CGATTTAG
Second: ACTATTCC
The “PBM E-score” value of the first is higher: 0.123 for the first, 0.0201 for the second.

Going from ATGTGCGG to GGTACTGA, the “PBM E-score” value falls from -0.0823 to -0.0964.

Compared with GAGTCGCC, CGGTTGAG is higher in “PBM E-score” value: -0.107 for the first, 0.155 for the second.

Compared with GGCGTTGA, CAACACAG is lower in “PBM E-score” value: 0.0525 for the first, -0.0303 for the second.

Going from GTTACTGA to ACCTTGCC, the “PBM E-score” value falls from 0.121 to -0.0345.

Going from ACGCCAAC to GGCCGAGA, the “PBM E-score” value rises from -0.142 to -0.141.

First: TGCTGGAA
Second: AACGCGTA
The “PBM E-score” value of the first is lower: -0.0981 for the first, 0.012 for the second.

Compared with AGAACACG, GACCCGGA is lower in “PBM E-score” value: 0.0555 for the first, -0.171 for the second.

First: CCAAGTGC
Second: ACACGCCC
The “PBM E-score” value of the first is lower: -0.225 for the first, -0.121 for the second.

First: GGAATCAA
Second: GACATGGC
The “PBM E-score” value of the first is higher: -0.0539 for the first, -0.0908 for the second.

Going from CATACCCG to GAGTACAA, the “PBM E-score” value rises from -0.0744 to 0.149.

First: CCCGAGCA
Second: CGGACAAC
The “PBM E-score” value of the first is lower: -0.105 for the first, 0.0819 for the second.

First: ATAGTGAA
Second: ACAAACAT
The “PBM E-score” value of the first is higher: 0.0719 for the first, 0.0383 for the second.

Going from AAAAGCTG to AATAATGT, the “PBM E-score” value rises from -0.101 to 0.0517.

First: CACATGAC
Second: CGAACGGA
The “PBM E-score” value of the first is higher: 0.144 for the first, 0.0894 for the second.

Compared with ATGTCTTA, CCAGCTAA is lower in “PBM E-score” value: 0.0404 for the first, -0.0589 for the second.

Compared with ATTCAGTA, ACACGGGT is lower in “PBM E-score” value: 0.0888 for the first, -0.0695 for the second.

Going from CCAGAGTC to GTAACGCA, the “PBM E-score” value rises from -0.092 to 0.0637.

Compared with ACCTACAC, GACCGGCA is lower in “PBM E-score” value: -0.063 for the first, -0.302 for the second.

First: GTGATGAA
Second: GTAATGCA
The “PBM E-score” value of the first is higher: 0.207 for the first, -0.123 for the second.

Going from TCCCAAGA to GTACCCCA, the “PBM E-score” value falls from -0.0087 to -0.129.

Going from CTACGTCC to ACAGGGCT, the “PBM E-score” value falls from 0.0118 to -0.245.

Compared with CCCCTCAA, GGGCTTAC is higher in “PBM E-score” value: -0.194 for the first, -0.0964 for the second.

Going from AAGGTGTG to ATTTAAGA, the “PBM E-score” value rises from -0.216 to 0.0589.

Compared with ACGTAGCC, ACATTACC is lower in “PBM E-score” value: 0.0785 for the first, 0.0683 for the second.

Compared with ATTAGCCA, ACATGATA is higher in “PBM E-score” value: -0.143 for the first, 0.315 for the second.

Going from ACCTCGAA to ACAGGAAA, the “PBM E-score” value rises from -0.0838 to 0.0114.

Going from CCGGGGAC to GTCTATCA, the “PBM E-score” value rises from -0.198 to 0.00113.

First: ACAGAATA
Second: GAATACAC
The “PBM E-score” value of the first is higher: 0.0746 for the first, -0.0981 for the second.

First: GCTGTTCA
Second: AGGTTACA
The “PBM E-score” value of the first is lower: -0.0631 for the first, 0.0369 for the second.

Going from TAGGACAA to GCAAGTGA, the “PBM E-score” value rises from -0.0173 to 0.157.

Going from AATCCAAA to GCCACCTA, the “PBM E-score” value falls from 0.0599 to -0.182.

Going from CCCGTGGC to AATTCACG, the “PBM E-score” value rises from -0.0649 to 0.106.

Compared with GTGCAGCA, CATGGGCA is higher in “PBM E-score” value: -0.178 for the first, -0.139 for the second.

Compared with AACTGGGC, AGGGCCGG is higher in “PBM E-score” value: -0.307 for the first, -0.278 for the second.

Going from AACTTTTC to AAGTAGGG, the “PBM E-score” value rises from -0.0439 to -0.0151.

Compared with CAACCTAC, GGGACGCA is lower in “PBM E-score” value: -0.122 for the first, -0.174 for the second.

Going from AACATCCC to CGCACTAG, the “PBM E-score” value falls from -0.00865 to -0.0426.

Going from CTATCCCC to AATTGACC, the “PBM E-score” value rises from -0.3 to 0.109.

Going from CAGTATTA to ACGAGAAT, the “PBM E-score” value rises from -0.0806 to 0.194.

First: AAACTGCA
Second: CAGGACGA
The “PBM E-score” value of the first is lower: -0.0426 for the first, 0.268 for the second.

From the supplement of paper PMC3334620
